No constants are given. Whether binding was seen depends on the method and setting. For some assays here: In cells and extracts the contact can be indirect. Some results given as binding are weak or reduced against the parent protein; the word gives no strength. Each block holds one molecule with its values, some of them ahead of it.
Tests used:
[1] = biological target: Flag-TAX1BP1 wild type (UniProt Q86VP1); experiment: co-IP
[2] = biological target: T1, MAVS, endogenous in MEFs (mouse (endogenous in MEFs)), Q8VCF0; experiment: SDD-AGE; conditions: remark: other sources report otherwise
T1 chain: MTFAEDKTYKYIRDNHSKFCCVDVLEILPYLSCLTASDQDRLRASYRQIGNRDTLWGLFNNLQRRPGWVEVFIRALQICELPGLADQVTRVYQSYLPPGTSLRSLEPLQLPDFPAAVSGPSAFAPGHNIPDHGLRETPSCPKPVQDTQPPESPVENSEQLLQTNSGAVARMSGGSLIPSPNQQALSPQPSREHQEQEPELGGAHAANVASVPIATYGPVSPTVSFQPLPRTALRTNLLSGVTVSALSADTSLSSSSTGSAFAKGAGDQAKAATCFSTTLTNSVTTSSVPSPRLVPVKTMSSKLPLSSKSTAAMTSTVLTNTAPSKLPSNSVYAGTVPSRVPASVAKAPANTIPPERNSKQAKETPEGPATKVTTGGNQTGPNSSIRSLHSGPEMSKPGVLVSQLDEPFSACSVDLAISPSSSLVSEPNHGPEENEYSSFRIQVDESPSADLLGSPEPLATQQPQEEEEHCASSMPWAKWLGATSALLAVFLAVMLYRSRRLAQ

The chains behind the UniProt entries cited, without tags or fusion partners. Residues count along the entry.
UniProt P60520: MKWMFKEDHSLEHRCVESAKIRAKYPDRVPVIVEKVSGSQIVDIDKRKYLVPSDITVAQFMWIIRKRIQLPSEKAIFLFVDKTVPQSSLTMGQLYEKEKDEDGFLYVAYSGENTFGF
UniProt Q9BXW4, residues 1-126: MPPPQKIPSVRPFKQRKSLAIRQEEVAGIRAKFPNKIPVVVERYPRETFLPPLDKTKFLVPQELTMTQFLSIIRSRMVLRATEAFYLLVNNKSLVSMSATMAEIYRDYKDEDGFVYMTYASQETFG
UniProt O95166: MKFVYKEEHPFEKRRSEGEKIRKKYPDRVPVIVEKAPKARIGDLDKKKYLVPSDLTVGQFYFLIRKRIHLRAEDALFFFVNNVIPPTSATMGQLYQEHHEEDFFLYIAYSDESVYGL

- binding [1]: binds weakly
Molecule: V5-tagged GABARAPL2 (GATE16) (from UniProt P60520 1-117)

- binding [1]: binds
Molecule: V5-tagged MAP1LC3C (from UniProt Q9BXW4 1-126)

- binding [1]: binds
Molecule: V5-tagged MAP1LC3A (from UniProt Q9H492 1-121)

- binding [1]: binds
Molecule: V5-tagged GABARAP (from UniProt O95166 1-117)

- binding [2]: binds
B1: MAVS, endogenous in MEFs, Q8VCF0 1-503 (protein)
chain: T1 chain
